Values from PubChem BioAssay AID493246 (Drosophila RNAi Screening Center, 2011)

Screen: 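Identify essential fly genes by loss of cell viability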 (primary screen)
Cells: Drosophila Kc and S2R+ cells
Reagent: long dsRNA against Drosophila genes
Measurement: 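Cell number per well after knock-down, printed as raw plate values; calls were based on per-plate z-scores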
Direction: Kc cell number and S2R+ cell number: higher = more cells remaining
Rule for the call: 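Active when the per-plate z-score of cell number is 3 or more in the direction of fewer cells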
The deposit covers about 21,000 reagents; below is an unselected part of those that have a named target and a result. Of all reagents, 429 (2%) are marked active. 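Values are raw and not normalised between plates; calls rest on per-plate z-scores that were not deposited.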 Entries without a mark were called inactive. A plus sign joins genes that one reagent is predicted to hit. The record does not give: the amount of reagent, the time to read-out.

target gene	dsRNA	Kc cell number, rep 1	Kc cell number, rep 2	S2R+ cell number, rep 1	S2R+ cell number, rep 2
CG11349	DRSC08179	1.54e6	1.42e6	1.13e6	1.17e6
CG17919	DRSC12571	1.47e6	1.57e6	1.29e6	1.34e6
CG14982	DRSC08440	1.08e6 (active)	1.33e6	4.71e5	5.77e5
MICAL-like	DRSC09829	1.32e6	1.29e6	1.30e6	1.05e6
Cpr64Ab (Cuticular protein 64Ab)	DRSC08461	1.70e6	1.55e6	1.09e6	1.33e6
speck	DRSC04608	1.31e6	1.35e6	1.09e6	1.21e6
CG17404	DRSC15234	1.72e6	1.78e6	1.20e6	1.31e6
PAN3 (Poly(A) specific ribonuclease subunit PAN3)	DRSC08190	1.22e6	1.40e6	1.14e6	1.05e6
Prp8 (pre-mRNA processing factor 8)	DRSC07293	1.23e6	1.36e6	7.54e5	8.57e5
CG13306	DRSC09976	1.43e6	1.40e6	1.18e6	1.24e6
Cyp6a22 (Cytochrome P450 6a22)	DRSC07382	1.40e6	1.49e6	9.90e5	1.02e6
CR42785 (pseudo)	DRSC04962	1.50e6	1.71e6	1.00e6	1.07e6
ATPCL (ATP citrate lyase)	DRSC05913	1.50e6	1.53e6	1.02e6	1.19e6
NimB1 (Nimrod B1)	DRSC01880	1.37e6	1.47e6	1.32e6	1.26e6
CCHa1-R (CCHamide-1 receptor)	DRSC06456	1.67e6	1.66e6	1.26e6	1.47e6
CCHa1-R (CCHamide-1 receptor)	DRSC06715	1.59e6	1.64e6	1.15e6	1.42e6
CG3251	DRSC00586	1.70e6	1.80e6	1.32e6	1.43e6
CG9775	DRSC12330	1.71e6	1.62e6	1.40e6	1.49e6
Tdc2 (Tyrosine decarboxylase 2)	DRSC04999	1.68e6	1.92e6	1.25e6	1.27e6
CG43367	DRSC08299	1.51e6	1.33e6	1.19e6	1.37e6
CG43367	DRSC08301	1.46e6	1.35e6	1.08e6	1.22e6
CG43367	DRSC08309	1.44e6	1.18e6	1.14e6	1.20e6
svp (seven up)	DRSC12899	1.33e6	1.53e6	1.02e6	1.18e6
svp (seven up)	DRSC15311	3.06e5 (active)	3.18e5	4.78e5	5.25e5
svp (seven up)	DRSC17075	1.28e6	1.32e6	1.01e6	1.13e6
CG31098	DRSC14259	1.59e6	1.57e6	1.02e6	1.14e6
Vml (Vitelline membrane-like)	DRSC17695	1.11e6	1.39e6	1.08e6	1.02e6
Vml (Vitelline membrane-like)	DRSC18529	1.39e6	1.69e6	1.07e6	1.19e6
CG31523	DRSC12009	1.77e6	1.86e6	1.17e6	1.41e6
CG31523	DRSC12337	1.60e6	1.76e6	1.33e6	1.33e6
Ocho	DRSC11239	1.40e6	1.39e6	1.23e6	1.33e6
RpL30 (Ribosomal protein L30)	DRSC02087	1.11e6	1.22e6	7.02e5	2.28e5
gammaTub37C (gamma-Tubulin at 37C)	DRSC03535	1.32e6	1.34e6	1.23e6	1.24e6
PsGEF (retired record)	DRSC18600	1.41e6	1.42e6	8.54e5	9.72e5
PsGEF (retired record)	DRSC18601	1.53e6	1.52e6	9.17e5	1.05e6

Reprinted from the entries so far for reference:
target gene	dsRNA	Kc cell number, rep 1	Kc cell number, rep 2	S2R+ cell number, rep 1	S2R+ cell number, rep 2
Vml (Vitelline membrane-like)	DRSC17695	1.11e6	1.39e6	1.08e6	1.02e6
Vml (Vitelline membrane-like)	DRSC18529	1.39e6	1.69e6	1.07e6	1.19e6
CG31523	DRSC12009	1.77e6	1.86e6	1.17e6	1.41e6
CG31523	DRSC12337	1.60e6	1.76e6	1.33e6	1.33e6

The list goes on:
target gene	dsRNA	Kc cell number, rep 1	Kc cell number, rep 2	S2R+ cell number, rep 1	S2R+ cell number, rep 2
rho (rhomboid)	DRSC08734	1.60e6	1.55e6	1.01e6	1.16e6
NimB5 (Nimrod B5)	DRSC01885	1.59e6	1.67e6	1.21e6	1.39e6
CG31793	DRSC02605	1.51e6	1.62e6	1.34e6	3.92e5
CG12374	DRSC06143	1.64e6	1.61e6	1.29e6	1.36e6
CG3552	DRSC10370	1.27e6	1.28e6	1.22e6	1.30e6
tau	DRSC14569	1.49e6	1.51e6	9.47e5	1.07e6
ck (crinkled)	DRSC03509	1.33e6	1.36e6	1.23e6	1.21e6
tal-1A + tal-2A + tal-AA + 1 more	DRSC12992	1.36e6	1.55e6	1.03e6	1.22e6
CG9570	DRSC20687	1.82e6	1.69e6	1.09e6	1.28e6
Cyp310a1 (Cytochrome P450 310a1)	DRSC03301	1.31e6	1.35e6	1.19e6	1.24e6
Mov10 (Mov10 RISC complex RNA helicase)	DRSC07012	1.41e6	1.57e6	1.23e6	1.28e6
Pex11ab (Peroxin 11a/b)	DRSC07145	1.50e6	1.55e6	1.09e6	1.27e6
babos	DRSC03923	5.29e5		9.20e5	
babos	DRSC04397	1.36e6	1.47e6	1.03e6	1.16e6
Zif (Zinc-finger protein)	DRSC12514	1.58e6	1.60e6	1.42e6	1.44e6
eIF2Bepsilon (eukaryotic translation initiation factor 2B subunit epsilon)	DRSC18769	5.18e5		7.74e5	
CG5776	DRSC02891	1.44e6	1.60e6	1.34e6	1.30e6
grnd (grindelwald)	DRSC02020	1.64e6	1.67e6	1.40e6	1.55e6
Ctr1A (Copper transporter 1A)	DRSC18336	1.32e6	1.37e6	8.85e5	9.97e5
obst-A (obstructor-A)	DRSC20543	1.53e6	1.58e6	1.04e6	1.17e6
Syn2 (Syntrophin-like 2)	DRSC06902	1.51e6	1.55e6	1.21e6	1.36e6
CG8046	DRSC07059	1.07e6	1.49e6	1.04e6	1.05e6
CG6628	DRSC10679	1.34e6	1.42e6	1.31e6	1.36e6
Hmr (Hybrid male rescue)	DRSC17740	1.55e6	1.50e6	1.02e6	1.10e6
